Measurements from the supplement of paper PMC10735217.
Where a name gives a salt, the structure may show the parent alone. The list shows a part of the results. Repeats in this data set agree poorly, so a single value says little.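 Human kidney-derived cells stably carry a construct in which eight TEAD-binding elements drive luciferase, measured by luminescence in a drug-repurposing library screen. A hit is any compound whose signal exceeds the plate mean by more than five robust Z scores.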

System: HEK293A TEAD-LUC reporter
Experiment: TEAD-luciferase reporter activity (YAP activation), robust Z score vs plate; higher = stronger YAP/TEAD activation
Settings: 24 h

Row | SMILES | TEAD-luciferase reporter activity (compound concentration: 200 nM) | TEAD-luciferase reporter activity (compound concentration: 2 uM) | TEAD-luciferase reporter activity (compound concentration: 10 uM)
1 | CC(C)CCC(=O)CC1c2ccccc2C(=O)N1c1ccc2ccc(Cl)nc2n1 (centres undefined) [pagoclone] | inactive: 1.55 | inactive: -0.0176 | inactive: -0.405
2 | COc1cc(NS(=O)(=O)c2ccc(N)cc2)nc(C)n1 | inactive: 1.34 | inactive: -0.677 | inactive: -0.83
3 | CN(C/C=C(/c1ccc(-c2ccco2)cc1)c1ccsc1)CC(=O)O | inactive: -0.0454 | inactive: -0.134 | inactive: 2.78
4 | N=C(N)N1CCc2ccccc2C1 [Debrisoquine sulfate] | inactive: -0.494 | inactive: 0.873 | inactive: -1.54
5 | CC(C(=O)O)c1ccc(N2Cc3ccccc3C2=O)cc1 (centres undefined) [Indoprofen] | inactive: 1.47 |  | inactive: -0.109
6 | CC(C(=O)O)c1ccc(N2Cc3ccccc3C2=O)cc1 (centres undefined) [indoprofen] |  | inactive: -2.03 | 
7 | Cc1[nH]c(=O)c(C#N)cc1-c1ccccc1 | inactive: 0.751 | inactive: 1.54 | inactive: 1.83
8 | CCc1ccccc1NC(=O)c1ccc[nH]c1=O | inactive: -1.3 | inactive: 1.91 | inactive: 0.535
9 | O=C1OC(c2ccc(O)cc2)(c2ccc(O)cc2)c2ccccc21 | inactive: -2.12 | inactive: -1.65 | inactive: 2.27
10 | O=C(O)c1c2c(nc3ccc(F)cc13)-c1ccc(-c3ccccc3F)cc1CCC2 | inactive: -0.734 | inactive: -0.947 | inactive: -0.601
11 | O=C([O-])CC/C=C\CC[C@H]1[C@@H](OCc2ccc(-c3ccccc3)cc2)CC(=O)[C@@H]1N1CCOCC1 | inactive: -1.07 | inactive: -0.818 | inactive: 0.7
12 | COC(=O)[C@@H](Cc1cnc[nH]1)NC(=O)[C@@H](Cc1ccccc1)NC(=O)[C@@H](Cc1ccccc1)NC(C)=O [Triletide] | inactive: -1.5 | inactive: 0.525 | inactive: 0.477
13 | NCCCC[C@@H]1NC(=O)[C@H](CCC(=O)O)NC(=O)c2cc([N+](=O)[O-])ccc2OCC[C@@H](C(=O)NCC(=O)O)NC1=O [Tavilermide] | inactive: -1.18 | inactive: -0.306 | inactive: -0.556
14 | Cc1cc(C)cc(-c2ccc(CN3CCCC3C(=O)N3CCCC(C)C3)cc2)c1 (centres undefined) | inactive: -1.95 |  | inactive: 1.69
15 | CCCCOc1ccc(OCC(O)CNCCNc2cc(=O)n(C)c(=O)n2C)cc1 (centres undefined) | inactive: -0.389 | inactive: -1.94 | inactive: -0.234
16 | CCC(=O)C1c2cccc(O)c2C(=O)c2c(O)cccc21 | inactive: -0.734 | inactive: -0.253 | inactive: 4.38

Just TEAD-luciferase reporter activity (compound concentration: 10 uM) (two entries from above):

| Row | SMILES | TEAD-luciferase reporter activity (compound concentration: 10 uM) |
| --- | --- | --- |
| 13 | NCCCC[C@@H]1NC(=O)[C@H](CCC(=O)O)NC(=O)c2cc([N+](=O)[O-])ccc2OCC[C@@H](C(=O)NCC(=O)O)NC1=O [Tavilermide] | inactive: -0.556 |
| 14 | Cc1cc(C)cc(-c2ccc(CN3CCCC3C(=O)N3CCCC(C)C3)cc2)c1 (centres undefined) | inactive: 1.69 |
